# Patent US20160287536A1, “Composition” (THE UNIVERSITY OF NOTTINGHAM, priority 2013, published 2016)
# Tests used:
# α1-adrenoceptor = assay: Saturation radioligand binding of [^3H]-prazosin to sheep anorectal tissue membranes; settings: sheep vascular tissues
# α2-adrenoceptor = assay: Saturation radioligand binding of [^3H]-RX821002 to sheep anorectal tissue membranes; settings: sheep vascular tissues
Compound,difference in Kd between artery and vein (α1-adrenoceptor),difference in Kd between artery and vein (α2-adrenoceptor)
COc1cc2nc(N3CCN(C(=O)c4ccco4)CC3)nc(N)c2cc1OC [[^3H]-prazosin],2-3 fold,–
"COC1(C2=NCCN2)COc2ccccc2O1 (centres unmarked) [[^3H]-RX821002, 2-(2-methoxy-1,4-benzodioxan-2-yl)-2-imidazoline]",–,about 5 fold
